Assay results reported in PMC8072159, “5-Bis-(2,6-difluoro-benzylidene) Cyclopentanone Acts as a Selective 11β-Hydroxysteroid Dehydrogenase one Inhibitor to Treat Diet-Induced Nonalcoholic Fatty Liver Disease in Mice” (Frontiers in Pharmacology, 2021).

Key:
[1] = test system: HFD-induced NAFLD mice; test: HFD-induced NAFLD mouse model, WZS08 by gavage for 100 days; format: in vivo; conditions: for Tibial length: mean ± SEM
Description: The KM mice were randomly divided into six groups, including a regular chow (Group C), HFD (Group M) as a model control group, HFD supplemented with various doses of WZS08, 1 (Group M + W1), 2 (Group M + W2), and 4 (Group + W4) mg/kg, 20 mice per group. Mice were housed five animals per cage. Mice were maintained at a constant temperature (25 ± 3°C) for a 12-h light-dark cycle with free access to food and water. After a week of diet adaptation, the mice were fed with WZS08 dissolved in 1% sodium carboxymethyl cellulose (CMC-Na) or 1% CMC-Na for 100 days alone. Each mouse was gavaged daily with 0.5 ml vehicle (1% CMC-Na) or drug in 1%CMC-Na. By the end of the treatment, the mice were killed by CO2, and the weights of body, liver, epididymal fat, mesenteric fat, and dorsal fat were measured. […]
Quantitative Real-Time Polymerase Chain Reaction
Total RNA was isolated from mouse liver using Trizol kit according to the manufacturer’s instruction. To reduce genomic DNA contamination, total RNAs were treated with ribonuclease-free deoxyribonuclease I (Thermo Fisher Scientific, Waltham, MA, United States) for 1 h at 37°C. 1 μg RNA was used to synthesize the first strand cDNA by reverse transcription kit. qPCR was carried out using SYBR GREEN as an indicator using Bio-Rad real time PCR system. The standard curve method was adopted as previously described ([Lv et al., 2019]). The Ct values were recorded after a series of diluted standards of mouse liver cDNAs, and the linear equation of Ct values vs. logarithm [dilution of standards] was generated, and the concentration of the target mRNA was calculated according to their Ct value. The result was normalized to Gapdh (encoding GAPDH) and Rps16 as the internal controls. The mRNA levels of Acs2 (encoding acetyl-CoA synthetase2), Hsd11b1 (encoding 11β–HSD1), Ldlr (encoding LDLR), Plin2 (encoding PLIN2), and Plin3 (encoding PLIN3) were evaluated. There were no changes in Gapdh and Rps16 mRNA levels between groups and the test mRNA levels were adjusted to Gapdh. Primer information is listed in Supplementary Table S1.
Measurement of Serum Insulin and Corticosterone Levels and Blood Lipid Levels
On the last day of the experiment, the mice were fasted for 6 h (with free access to drinking water), and then blood and tissues were sampled. Blood samples were collected. The blood sample was centrifuged at 5000 rpm for 10 min to collect the serum, and the serum was frozen at -40°C until use. According to standard clinical protocols, the levels of serum glucose, low-density lipoprotein (LDL), high-density lipoprotein (HDL), total cholesterol, and triglyceride (TG) were measured using Hitachi 7600 biochemical analyzer (Hitachi, Japan). In addition, serum insulin and corticosterone levels were evaluated using the ultrasensitive mouse insulin ELISA kit (CrystalChem, IL, USA) and the commercially available corticosterone ELISA kit (Abnova, Taiwan, China) according to the manufacturers’ instructions.
Protein Expression Analysis
Total hepatic protein extract was obtained as previously described ([Lazaro et al., 2013]). The protein was separated by SDS–PAGE and transferred to a 0.2 μm PVDF membrane. The primary antibodies used were: 11β-HSD1 (rabbit polyclonal antibody, Abcam, catalog # ab39364; being blocked with 11β-HSD1 peptide, #ab101097, San Francisco, CA), ACS2 (Abcam, catalog # ab229958, San Francisco, CA, United States), and β-actin (ACTB, Cell signaling, Danvers, MA, United States). Goat anti-rabbit HRP was used as a secondary antibody. Finally, chemiluminescence emitted by the immunoreactive protein was detected by an ECL advance agent, and visualized with a MicroChemi Imaging system and qualified by a densitometry using AlphaEaseFC (ProteinSample, CA, United States). Relative protein levels were normalized by ACTB.
Before hematoxylin and eosin (HE) staining, the livers of KM mice were fixed in 10% formalin, dehydrated, and embedded in paraffin, as previously described ([Andres-Manzano et al., 2015]). […]

[2] = test system: KM mice on regular chow; test: Regular chow mice given WZS08 for 100 days; format: in vivo, mouse; conditions: regular chow plus 2 mg/kg WZS08 (C + W2), mean ± SEM
Description: The KM mice were randomly divided into six groups, including a regular chow (Group C), HFD (Group M) as a model control group, HFD supplemented with various doses of WZS08, 1 (Group M + W1), 2 (Group M + W2), and 4 (Group + W4) mg/kg, 20 mice per group. Mice were housed five animals per cage. Mice were maintained at a constant temperature (25 ± 3°C) for a 12-h light-dark cycle with free access to food and water. After a week of diet adaptation, the mice were fed with WZS08 dissolved in 1% sodium carboxymethyl cellulose (CMC-Na) or 1% CMC-Na for 100 days alone. Each mouse was gavaged daily with 0.5 ml vehicle (1% CMC-Na) or drug in 1%CMC-Na. By the end of the treatment, the mice were killed by CO2, and the weights of body, liver, epididymal fat, mesenteric fat, and dorsal fat were measured.

`O=C1/C(=C/c2c(F)cccc2F)CC/C1=C\c1c(F)cccc1F` [WZS08, (2E,5E)-2,5-bis(2,6-difluorobenzylidene) Cyclopentanone] was tested. Which calorie intake ([1]; HFD mice, 45 days, vs Group M) did it give?
Its calorie intake is “did not affect”.

What about the “weight of other tissues (back fat, visceral fat, epididymal fat, thymus)” value ([1]; HFD mice, 100 days) of the same molecule?
Its value is “not affected”.

And the “systemic circulatory CORT level” value ([1]; HFD mice, serum, 100 days)?
The value was “did not change”.

What about the “total fecal lipid content” value ([1]; HFD mice, vs Group M) of the same molecule?
The value was “did not affect”.

And the Tibial length ([1]; HFD plus 1 mg/kg WZS08 (M + W1), 100 days)?
The Tibial length was 2.51 ± 0.053 cm.

And the Tibial length ([1]; HFD plus 2 mg/kg WZS08 (M + W2), 100 days)?
Its Tibial length is 2.41 ± 0.056 cm.

And the Tibial length ([1]; HFD plus 4 mg/kg WZS08 (M + W4), 100 days)?
The Tibial length was 2.45 ± 0.071 cm.

And the Body weight [2]?
The Body weight was 50.70 ± 0.92 g.

And the Dorsal adipose weight [2]?
Its Dorsal adipose weight is 0.49 ± 0.045 g.

And the Epididymal adipose weight [2]?
The Epididymal adipose weight was 1.30 ± 0.116 g.

And the Mesenteric adipose weight [2]?
Its Mesenteric adipose weight is 0.55 ± 0.044 g.

And the Thymic adipose weight [2]?
The Thymic adipose weight was 0.07 ± 0.01 g.

What about the Tibial length [2] of the same molecule?
Its Tibial length is 2.34 ± 0.046 cm.

And the Total hepatic weight [2]?
Its Total hepatic weight is 2.03 ± 0.06 g.
